# The list shows a part of the results.
# The chains behind the UniProt entries cited, without tags or fusion partners. Where a name states a change or a piece, a line headed by the entry shows the natural chain unless it says otherwise.
# UniProt Q8IZP0: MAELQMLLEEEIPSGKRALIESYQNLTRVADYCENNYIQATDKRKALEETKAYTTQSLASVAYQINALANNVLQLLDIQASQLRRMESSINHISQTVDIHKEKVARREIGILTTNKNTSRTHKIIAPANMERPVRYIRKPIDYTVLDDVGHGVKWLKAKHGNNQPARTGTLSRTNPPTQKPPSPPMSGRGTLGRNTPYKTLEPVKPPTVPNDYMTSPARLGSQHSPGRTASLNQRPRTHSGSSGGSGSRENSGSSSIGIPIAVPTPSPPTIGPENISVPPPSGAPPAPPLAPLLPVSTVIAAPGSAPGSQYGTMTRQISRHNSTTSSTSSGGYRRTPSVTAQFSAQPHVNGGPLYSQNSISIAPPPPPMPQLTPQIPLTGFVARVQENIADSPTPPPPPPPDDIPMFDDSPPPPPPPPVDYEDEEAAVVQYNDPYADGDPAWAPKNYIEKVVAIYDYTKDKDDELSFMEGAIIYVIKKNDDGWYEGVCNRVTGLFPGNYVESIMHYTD
# UniProt Q6UWZ7: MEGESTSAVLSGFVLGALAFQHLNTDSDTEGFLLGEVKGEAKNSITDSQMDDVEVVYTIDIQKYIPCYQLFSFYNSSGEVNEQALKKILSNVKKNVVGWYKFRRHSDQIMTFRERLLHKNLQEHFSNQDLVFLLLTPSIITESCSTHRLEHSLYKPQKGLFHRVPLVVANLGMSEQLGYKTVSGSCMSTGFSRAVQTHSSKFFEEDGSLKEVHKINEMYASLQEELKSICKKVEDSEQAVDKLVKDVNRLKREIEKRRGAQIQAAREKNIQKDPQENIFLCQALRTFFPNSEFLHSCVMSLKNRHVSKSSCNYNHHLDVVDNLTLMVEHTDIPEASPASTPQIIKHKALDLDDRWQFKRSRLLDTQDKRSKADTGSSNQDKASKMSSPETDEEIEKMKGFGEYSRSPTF
# UniProt Q99798: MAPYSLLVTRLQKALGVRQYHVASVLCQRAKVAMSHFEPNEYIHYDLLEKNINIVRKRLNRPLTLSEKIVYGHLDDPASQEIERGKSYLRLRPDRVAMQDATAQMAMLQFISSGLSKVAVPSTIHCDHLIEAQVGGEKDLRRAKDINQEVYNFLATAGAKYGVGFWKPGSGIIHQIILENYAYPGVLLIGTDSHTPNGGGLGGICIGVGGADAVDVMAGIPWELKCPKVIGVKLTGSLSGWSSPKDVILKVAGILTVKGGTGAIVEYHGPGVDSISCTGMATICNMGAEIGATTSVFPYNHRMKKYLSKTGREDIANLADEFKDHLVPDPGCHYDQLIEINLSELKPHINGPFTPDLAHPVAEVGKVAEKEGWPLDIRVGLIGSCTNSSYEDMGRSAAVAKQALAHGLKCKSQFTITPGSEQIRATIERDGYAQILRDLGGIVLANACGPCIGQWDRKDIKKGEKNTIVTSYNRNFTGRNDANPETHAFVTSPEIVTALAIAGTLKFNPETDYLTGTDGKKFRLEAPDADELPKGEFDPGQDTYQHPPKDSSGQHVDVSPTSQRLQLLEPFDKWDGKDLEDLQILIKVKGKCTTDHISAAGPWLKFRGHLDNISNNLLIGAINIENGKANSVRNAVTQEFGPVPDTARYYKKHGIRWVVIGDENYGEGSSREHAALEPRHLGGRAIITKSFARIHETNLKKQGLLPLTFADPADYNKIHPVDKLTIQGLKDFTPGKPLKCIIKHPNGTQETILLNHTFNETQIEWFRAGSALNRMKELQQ
# UniProt Q9BWD1: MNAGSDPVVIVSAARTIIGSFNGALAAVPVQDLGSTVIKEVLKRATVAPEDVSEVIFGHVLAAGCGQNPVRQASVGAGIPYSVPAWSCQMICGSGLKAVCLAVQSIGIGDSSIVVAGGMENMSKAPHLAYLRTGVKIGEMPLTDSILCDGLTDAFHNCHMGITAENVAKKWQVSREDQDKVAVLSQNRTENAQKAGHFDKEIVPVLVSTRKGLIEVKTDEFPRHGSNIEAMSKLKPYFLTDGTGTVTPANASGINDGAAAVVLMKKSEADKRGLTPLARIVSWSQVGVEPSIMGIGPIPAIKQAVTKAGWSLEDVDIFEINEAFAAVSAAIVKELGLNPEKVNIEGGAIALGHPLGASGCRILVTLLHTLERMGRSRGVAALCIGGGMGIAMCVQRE
# UniProt P49748: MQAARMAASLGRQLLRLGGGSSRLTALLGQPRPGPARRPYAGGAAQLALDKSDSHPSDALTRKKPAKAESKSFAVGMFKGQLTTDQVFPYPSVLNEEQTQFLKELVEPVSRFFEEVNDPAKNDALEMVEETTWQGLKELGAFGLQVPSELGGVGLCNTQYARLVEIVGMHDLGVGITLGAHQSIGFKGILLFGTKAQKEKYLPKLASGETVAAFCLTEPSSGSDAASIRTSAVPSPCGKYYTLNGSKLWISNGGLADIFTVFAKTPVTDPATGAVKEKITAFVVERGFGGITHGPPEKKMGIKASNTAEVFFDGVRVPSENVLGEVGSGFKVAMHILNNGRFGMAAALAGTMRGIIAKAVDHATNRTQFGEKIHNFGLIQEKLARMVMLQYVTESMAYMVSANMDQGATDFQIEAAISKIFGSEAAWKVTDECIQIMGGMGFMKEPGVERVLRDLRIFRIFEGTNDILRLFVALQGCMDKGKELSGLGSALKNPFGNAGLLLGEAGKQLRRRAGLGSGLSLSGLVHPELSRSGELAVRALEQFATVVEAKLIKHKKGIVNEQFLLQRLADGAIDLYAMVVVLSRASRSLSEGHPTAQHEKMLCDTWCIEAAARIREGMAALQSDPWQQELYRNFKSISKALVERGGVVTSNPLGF
# UniProt Q9UKV3: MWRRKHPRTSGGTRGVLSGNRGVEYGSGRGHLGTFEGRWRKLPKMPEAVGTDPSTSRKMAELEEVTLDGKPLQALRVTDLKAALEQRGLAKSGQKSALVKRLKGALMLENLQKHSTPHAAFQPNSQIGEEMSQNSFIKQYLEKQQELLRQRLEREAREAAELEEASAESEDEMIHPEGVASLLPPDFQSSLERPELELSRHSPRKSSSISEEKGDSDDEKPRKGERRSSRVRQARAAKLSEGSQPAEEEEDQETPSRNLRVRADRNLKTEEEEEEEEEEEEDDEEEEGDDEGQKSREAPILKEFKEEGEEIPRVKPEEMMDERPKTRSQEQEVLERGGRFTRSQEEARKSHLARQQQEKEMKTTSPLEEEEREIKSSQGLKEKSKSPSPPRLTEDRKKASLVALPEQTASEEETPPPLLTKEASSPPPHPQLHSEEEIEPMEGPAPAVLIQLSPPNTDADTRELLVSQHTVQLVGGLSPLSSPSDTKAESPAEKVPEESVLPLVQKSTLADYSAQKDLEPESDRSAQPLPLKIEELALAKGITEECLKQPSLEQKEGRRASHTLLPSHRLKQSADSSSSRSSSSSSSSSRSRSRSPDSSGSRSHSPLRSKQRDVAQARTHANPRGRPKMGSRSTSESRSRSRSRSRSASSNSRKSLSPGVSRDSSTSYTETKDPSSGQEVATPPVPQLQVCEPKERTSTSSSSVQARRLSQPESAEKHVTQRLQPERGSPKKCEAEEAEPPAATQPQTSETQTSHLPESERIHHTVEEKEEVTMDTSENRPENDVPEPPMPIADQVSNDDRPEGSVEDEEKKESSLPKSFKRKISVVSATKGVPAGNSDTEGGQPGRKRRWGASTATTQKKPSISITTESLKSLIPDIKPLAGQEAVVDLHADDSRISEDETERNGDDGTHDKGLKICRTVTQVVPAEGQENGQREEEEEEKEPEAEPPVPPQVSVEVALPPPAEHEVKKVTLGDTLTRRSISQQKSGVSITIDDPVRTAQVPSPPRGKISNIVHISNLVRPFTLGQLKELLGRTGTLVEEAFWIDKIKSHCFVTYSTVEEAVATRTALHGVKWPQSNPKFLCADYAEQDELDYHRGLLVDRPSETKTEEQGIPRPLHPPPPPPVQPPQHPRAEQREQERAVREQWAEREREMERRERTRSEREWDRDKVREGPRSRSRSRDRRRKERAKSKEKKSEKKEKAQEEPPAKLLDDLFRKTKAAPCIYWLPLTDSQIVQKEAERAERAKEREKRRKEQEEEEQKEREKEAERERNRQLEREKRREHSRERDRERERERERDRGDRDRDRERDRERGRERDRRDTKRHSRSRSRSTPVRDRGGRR
# UniProt P24752: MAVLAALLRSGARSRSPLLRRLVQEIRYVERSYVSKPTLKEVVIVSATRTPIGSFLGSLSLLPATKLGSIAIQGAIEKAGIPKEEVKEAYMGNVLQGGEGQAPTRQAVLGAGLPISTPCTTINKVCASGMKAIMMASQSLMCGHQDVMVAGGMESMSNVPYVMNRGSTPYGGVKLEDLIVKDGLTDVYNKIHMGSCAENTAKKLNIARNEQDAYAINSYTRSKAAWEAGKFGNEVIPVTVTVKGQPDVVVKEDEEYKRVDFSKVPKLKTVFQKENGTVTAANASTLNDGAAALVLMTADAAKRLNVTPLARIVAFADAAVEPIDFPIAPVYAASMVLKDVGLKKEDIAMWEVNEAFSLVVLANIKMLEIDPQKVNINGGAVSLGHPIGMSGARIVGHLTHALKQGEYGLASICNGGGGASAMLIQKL
# UniProt Q9NUT2: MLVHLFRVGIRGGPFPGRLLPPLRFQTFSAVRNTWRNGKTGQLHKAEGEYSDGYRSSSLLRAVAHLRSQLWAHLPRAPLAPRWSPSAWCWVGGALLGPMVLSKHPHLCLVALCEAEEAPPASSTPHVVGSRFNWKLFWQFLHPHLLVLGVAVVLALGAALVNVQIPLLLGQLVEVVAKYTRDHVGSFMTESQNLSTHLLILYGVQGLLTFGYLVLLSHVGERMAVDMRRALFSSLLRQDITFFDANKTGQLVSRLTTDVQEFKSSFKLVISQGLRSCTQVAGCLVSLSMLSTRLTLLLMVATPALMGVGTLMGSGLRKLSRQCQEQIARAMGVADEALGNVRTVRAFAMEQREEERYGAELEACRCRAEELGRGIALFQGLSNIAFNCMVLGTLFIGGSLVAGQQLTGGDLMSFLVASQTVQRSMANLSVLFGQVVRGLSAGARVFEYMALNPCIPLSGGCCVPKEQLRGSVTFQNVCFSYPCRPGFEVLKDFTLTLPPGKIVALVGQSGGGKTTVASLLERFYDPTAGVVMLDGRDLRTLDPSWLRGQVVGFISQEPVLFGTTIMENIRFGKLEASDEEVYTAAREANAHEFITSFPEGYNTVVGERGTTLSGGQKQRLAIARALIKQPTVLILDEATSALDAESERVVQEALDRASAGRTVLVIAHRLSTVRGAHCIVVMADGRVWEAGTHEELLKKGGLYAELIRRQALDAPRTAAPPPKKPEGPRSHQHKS
# UniProt P11310: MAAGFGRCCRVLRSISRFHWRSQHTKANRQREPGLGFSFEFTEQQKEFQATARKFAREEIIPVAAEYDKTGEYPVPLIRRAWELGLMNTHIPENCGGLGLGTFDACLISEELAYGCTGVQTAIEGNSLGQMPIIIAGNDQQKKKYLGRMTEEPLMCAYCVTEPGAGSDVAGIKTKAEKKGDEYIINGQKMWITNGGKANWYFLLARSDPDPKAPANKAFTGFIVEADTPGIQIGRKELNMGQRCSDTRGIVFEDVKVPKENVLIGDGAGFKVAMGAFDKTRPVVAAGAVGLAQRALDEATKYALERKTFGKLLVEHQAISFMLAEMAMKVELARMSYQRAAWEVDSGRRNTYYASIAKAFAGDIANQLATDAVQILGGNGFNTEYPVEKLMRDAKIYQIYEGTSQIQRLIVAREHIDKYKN
# UniProt Q9NP58: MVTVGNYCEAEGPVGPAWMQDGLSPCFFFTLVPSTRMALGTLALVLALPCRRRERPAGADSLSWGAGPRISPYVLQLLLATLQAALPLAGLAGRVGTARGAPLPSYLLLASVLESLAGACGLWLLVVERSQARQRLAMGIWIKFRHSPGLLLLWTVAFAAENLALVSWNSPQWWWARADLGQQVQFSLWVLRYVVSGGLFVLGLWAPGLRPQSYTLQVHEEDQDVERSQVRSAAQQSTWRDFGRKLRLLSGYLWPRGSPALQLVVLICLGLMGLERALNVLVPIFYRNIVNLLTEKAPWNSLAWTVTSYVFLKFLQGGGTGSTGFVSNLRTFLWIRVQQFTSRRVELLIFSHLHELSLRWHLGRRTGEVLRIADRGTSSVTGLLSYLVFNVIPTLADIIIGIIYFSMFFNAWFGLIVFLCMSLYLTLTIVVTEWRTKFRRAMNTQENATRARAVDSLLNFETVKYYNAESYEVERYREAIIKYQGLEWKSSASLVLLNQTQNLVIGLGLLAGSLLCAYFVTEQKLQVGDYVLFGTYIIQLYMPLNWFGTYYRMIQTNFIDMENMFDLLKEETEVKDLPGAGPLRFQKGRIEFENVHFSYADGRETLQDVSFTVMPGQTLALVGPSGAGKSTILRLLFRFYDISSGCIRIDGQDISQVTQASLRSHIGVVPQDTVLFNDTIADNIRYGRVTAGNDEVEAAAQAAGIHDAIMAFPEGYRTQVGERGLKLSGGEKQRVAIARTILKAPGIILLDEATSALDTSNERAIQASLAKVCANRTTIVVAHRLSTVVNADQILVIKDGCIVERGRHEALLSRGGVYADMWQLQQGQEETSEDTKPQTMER
# How the values were obtained:
# Experiment in all cases: log2 fold change, soluble protein after heating vs DMSO (PISA); higher = thermal stabilisation; K562 lysate, 10 uM; active = over 0.2 and 3.5 SD of the protein, either way, in both replicates (recomputed)
# [1] = compound: Cc1cn(-c2cc(NC(=O)c3ccc(C)c(Nc4nccc(-c5cccnc5)n4)c3)cc(C(F)(F)F)c2)cn1 [nilotinib]
# How it was run: (§1)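 K562 pellets were dounce-homogenised in PBS pH 7.4 with 1 mM MgCl2, and the crude extract at 1 mg/mL protein was treated with 10 μM compound for 30 min. Aliquots were heated for 3 min across 48°C-58°C, pooled, and brought to 0.5% NP-40 at 4°C; soluble protein was the supernatant after 21,000xg for 90 min. Soluble protein was quantified by TMTpro 16plex LC-MS/MS with channel sums equalised, and reported as log2 fold change in thermal stability against DMSO controls, with values from duplicates.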
# [2] = compound: Cc1nc(Nc2n[nH]c3c2CN(C(=O)N[C@H](CN(C)C)c2ccccc2)C3(C)C)c2sccc2n1
# How it was run: as §1
# [3] = compound: Cc1nc(Nc2ncc(C(=O)Nc3c(C)cccc3Cl)s2)cc(N2CCN(CCO)CC2)n1 [dasatinib]
# How it was run: as §1
# [4] = compound: Cc1ncc(-c2ccnc(Nc3ccc(S(C)(=O)=O)cc3)n2)n1C(C)C
# How it was run: as §1
# [5] = compound: Cn1cc(-c2ccc3c(c2)CCN3C(=O)Cc2cccc(C(F)(F)F)c2)c2c(N)ncnc21
# How it was run: as §1
# [6] = compound: Cn1cc(CNCC2CCN(c3ncc(C(=O)NO)cn3)CC2)c2ccccc21 [quisinostat]
# How it was run: as §1
# [7] = compound: Cn1cncc1[C@@](N)(c1ccc(Cl)cc1)c1ccc2c(c1)c(-c1cccc(Cl)c1)cc(=O)n2C [tipifarnib]
# How it was run: as §1
# [8] = compound: NC(=O)Nc1cc(-c2cccc(F)c2)sc1C(=O)N[C@H]1CCCNC1
# How it was run: as §1
# [9] = compound: NC(=O)c1cnc(N[C@@H]2CCCC[C@@H]2N)nc1Nc1cccc(-n2nccn2)c1
# How it was run: as §1
# [10] = compound: NC1(c2ccc(-c3nc4ccn5c(=O)[nH]nc5c4cc3-c3ccccc3)cc2)CCC1
# How it was run: as §1
# [11] = compound: NCC(=O)Nc1ccc(-n2nc(C(F)(F)F)cc2-c2ccc3c(ccc4ccccc43)c2)cc1
# How it was run: as §1
# [12] = compound: O=C(CCCCCCC(=O)Nc1ccccc1)NO [vorinostat]
# How it was run: as §1
# [13] = compound: O=C(O)c1ccc2c(c1)nc(Nc1cccc(Cl)c1)c1ccncc12 [silmitasertib]
# How it was run: as §1
# [14] = compound: O=C1NC(=O)C(c2cnc3ccccn23)=C1c1cn2c3c(cc(F)cc13)CN(C(=O)N1CCCCC1)CC2
# How it was run: as §1
# [15] = compound: c1cn2cc(-c3ccc4cn[nH]c4c3)nc(Nc3ccc(N4CCOCC4)cc3)c2n1 [entospletinib]
# How it was run: as §1
Target,log2 fold change [1],log2 fold change [2],log2 fold change [3],log2 fold change [4],log2 fold change [5],log2 fold change [6],log2 fold change [7],log2 fold change [8],log2 fold change [9],log2 fold change [10],log2 fold change [11],log2 fold change [12],log2 fold change [13],log2 fold change [14],log2 fold change [15]
ACACA isoform 4 (UniProt Q13085),inactive: -0.032,inactive: 0.004,inactive: -0.037,inactive: 0.028,inactive: 0.043,inactive: -0.024,inactive: 0.081,inactive: 0.03,inactive: 0.01,inactive: -0.019,inactive: -0.003,active: -0.449,inactive: 0.016,inactive: -0.003,inactive: 0.027
AAAS (UniProt Q9NRG9),inactive: 0.032,inactive: -0.031,inactive: -0.055,inactive: -0.047,inactive: 0.032,inactive: -0.013,inactive: -0.037,inactive: 0.029,inactive: -0.008,inactive: 0.025,inactive: 0.017,inactive: -0.173,inactive: 0.033,inactive: -0.021,inactive: -0.007
ABI1 isoform 9 (UniProt Q8IZP0),inactive: -0.006,inactive: -0.004,inactive: -0.001,inactive: -0.02,inactive: -0.016,inactive: 0.003,inactive: -0.01,inactive: -0.023,inactive: 0.003,inactive: 0.032,inactive: 0.046,inactive: 0.026,inactive: -0.025,inactive: 0.03,inactive: 0.018
ABRAXAS1 (UniProt Q6UWZ7),inactive: 0.071,inactive: -0.071,inactive: 0.059,inactive: 0.072,inactive: 0.005,inactive: 0.007,inactive: 0.072,inactive: 0.032,inactive: 0.003,inactive: 0.029,inactive: -0.037,inactive: -0.037,inactive: 0.025,inactive: -0.031,inactive: -0.041
ACO2 (UniProt Q99798),inactive: -0.007,inactive: -0.003,inactive: -0.013,inactive: 0.005,inactive: 0.019,inactive: -0.009,inactive: 0.008,inactive: -0.015,inactive: 0.022,inactive: -0.019,inactive: 0.036,inactive: 0.071,inactive: -0.021,inactive: -0.003,inactive: 0.012
ABHD12 isoform 2 (UniProt Q8N2K0),inactive: 0.005,inactive: -0.004,inactive: 0.028,inactive: 0.058,inactive: -0.068,inactive: 0.044,inactive: -0.077,inactive: -0.025,inactive: -0.02,inactive: 0.019,inactive: -0.003,active: 0.392,inactive: -0.026,inactive: -0.023,inactive: -0.023
ACAT2 (UniProt Q9BWD1),inactive: 0.019,inactive: -0.017,inactive: 0.026,inactive: 0.001,inactive: -0.02,inactive: 0.049,inactive: 0.013,inactive: -0.034,inactive: -0.006,inactive: 0.014,inactive: 0.009,inactive: -0.086,inactive: -0.006,inactive: 0.04,inactive: 0.011
ACADVL isoform 3 (UniProt P49748),inactive: -0.013,inactive: 0.05,inactive: -0.007,inactive: -0.004,inactive: -0.042,inactive: 0.007,inactive: 0.002,inactive: -0.048,inactive: -0.012,inactive: 0,inactive: -0.005,inactive: 0.128,inactive: -0.02,inactive: 0.018,inactive: -0.015
ACIN1 isoform 5 (UniProt Q9UKV3),inactive: 0.017,inactive: -0.018,inactive: -0.012,inactive: 0.001,inactive: 0.008,inactive: 0.011,inactive: 0,inactive: -0.063,inactive: 0.024,inactive: 0.01,inactive: 0.035,inactive: 0.007,inactive: 0.001,inactive: -0.012,inactive: -0.003
ACAT1 (UniProt P24752),inactive: 0.028,inactive: -0.021,inactive: 0.015,inactive: 0.019,inactive: -0.029,inactive: -0.006,inactive: 0.044,inactive: -0.001,inactive: -0.005,inactive: 0.021,inactive: 0.011,active: -1.05,inactive: -0.037,inactive: -0.014,inactive: 0.018
ACADS (UniProt P16219),active: 0.278,inactive: -0.04,inactive: -0.002,inactive: -0.025,inactive: 0.033,inactive: -0.009,inactive: -0.018,inactive: 0.032,inactive: 0.01,inactive: 0.017,inactive: -0.005,inactive: 0.217,inactive: -0.089,inactive: 0.017,inactive: -0.021
ABCB8 (UniProt Q9NUT2),inactive: 0,inactive: -0.213,inactive: -0.076,inactive: -0.043,inactive: 0.035,inactive: -0.021,inactive: -0.046,inactive: 0.063,inactive: -0.013,inactive: 0.013,inactive: -0.01,inactive: -0.125,inactive: -0.035,inactive: -0.015,inactive: -0.012
ACADM isoform 2 (UniProt P11310),inactive: -0.031,inactive: -0.008,inactive: -0.041,inactive: -0.009,inactive: 0.001,inactive: 0.009,inactive: -0.021,inactive: -0.027,inactive: -0.033,inactive: -0.091,inactive: -0.015,active: 0.344,inactive: -0.015,inactive: 0.023,inactive: 0.016
ABCB6 (UniProt Q9NP58),inactive: 0.016,inactive: 0.028,inactive: 0.026,inactive: -0.023,inactive: -0.028,inactive: -0.018,inactive: 0.024,inactive: 0.024,inactive: -0.01,inactive: -0.046,inactive: 0.005,inactive: 0.041,inactive: -0.038,inactive: -0.004,inactive: 0.048
ACACB (UniProt O00763),inactive: -0.001,inactive: -0.042,inactive: -0.021,inactive: -0.052,inactive: 0.05,inactive: -0.061,inactive: 0.048,inactive: 0.062,inactive: -0.001,inactive: -0.018,inactive: -0.026,active: -0.438,inactive: 0.03,inactive: -0.009,inactive: 0.088
ABI2 (UniProt Q9NYB9),inactive: -0.04,inactive: -0.023,inactive: -0.02,inactive: 0.015,inactive: -0.02,inactive: 0.068,inactive: 0.013,inactive: 0.023,inactive: 0.026,inactive: 0.019,inactive: 0.027,inactive: -0.024,inactive: 0.017,inactive: -0.031,inactive: 0.009
AARS2 (UniProt Q5JTZ9),inactive: -0.046,inactive: 0.021,inactive: -0.018,inactive: -0.013,inactive: 0.062,inactive: -0.046,inactive: 0.023,inactive: 0.053,inactive: 0.016,inactive: -0.05,inactive: -0.004,active: -0.243,inactive: 0.085,inactive: 0.028,inactive: 0.035
AAMDC (UniProt Q9H7C9),inactive: 0.097,inactive: 0.006,inactive: 0.041,inactive: -0.045,inactive: 0.031,inactive: -0.03,inactive: 0.081,inactive: -0.045,inactive: -0.044,inactive: 0.002,inactive: -0.079,inactive: 0.089,inactive: -0.053,inactive: 0.001,inactive: -0.074
ABHD11 (UniProt Q8NFV4),inactive: -0.001,inactive: -0.021,inactive: -0.005,inactive: -0.044,inactive: 0.079,inactive: 0.081,inactive: 0.042,inactive: -0.016,inactive: 0.04,inactive: -0.003,inactive: -0.001,inactive: 0.195,active: 0.324,inactive: 0.003,inactive: 0.05
ABCC4 (UniProt O15439),inactive: -0.021,inactive: 0.036,inactive: 0.051,inactive: 0.019,inactive: 0.012,inactive: -0.018,inactive: 0.006,inactive: -0.003,inactive: 0.01,inactive: -0.017,inactive: 0.003,inactive: 0.034,inactive: -0.029,inactive: 0.001,inactive: 0.009

# Just log2 fold change [14] (two entries from above):
Target	log2 fold change [14]
AAAS (UniProt Q9NRG9)	inactive: -0.021
ABI1 isoform 9 (UniProt Q8IZP0)	inactive: 0.03

# Source: the supplement of paper PMC10849652
